Data taken from US8269043B2, “Bicyclic aryl sphingosine 1-phosphate analogs” (Biogen Idec MA Inc., priority 2008, dated 2012).
At least one compound was matched to its structure with a doubt left.

Protein sequences, listed by entry. Tags and fused reporters are not part of them. Lines headed by an entry give the natural chain unless they say otherwise; changes in a name come on top.
UniProt P21453, whole entry: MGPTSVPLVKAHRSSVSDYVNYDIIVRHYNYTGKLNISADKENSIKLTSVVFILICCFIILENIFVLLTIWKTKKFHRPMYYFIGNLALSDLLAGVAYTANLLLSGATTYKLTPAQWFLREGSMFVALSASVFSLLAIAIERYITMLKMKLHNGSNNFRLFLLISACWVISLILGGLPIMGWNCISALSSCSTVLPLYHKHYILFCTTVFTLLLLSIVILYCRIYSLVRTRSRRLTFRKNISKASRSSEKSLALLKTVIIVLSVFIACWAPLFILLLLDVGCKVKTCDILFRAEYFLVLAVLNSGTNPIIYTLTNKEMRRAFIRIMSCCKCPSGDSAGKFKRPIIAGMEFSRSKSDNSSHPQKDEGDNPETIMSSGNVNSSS
UniProt Q99500: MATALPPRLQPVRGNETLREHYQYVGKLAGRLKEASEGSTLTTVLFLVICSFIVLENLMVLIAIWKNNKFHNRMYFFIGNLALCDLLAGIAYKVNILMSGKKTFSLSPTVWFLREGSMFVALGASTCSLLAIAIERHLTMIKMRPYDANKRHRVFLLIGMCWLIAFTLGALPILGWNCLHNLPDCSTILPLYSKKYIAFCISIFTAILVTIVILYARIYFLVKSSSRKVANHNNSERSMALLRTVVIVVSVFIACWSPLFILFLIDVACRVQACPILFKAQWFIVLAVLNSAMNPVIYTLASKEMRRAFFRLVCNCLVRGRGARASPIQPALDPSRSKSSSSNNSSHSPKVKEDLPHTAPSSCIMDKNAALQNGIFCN

Experiments:
Type in all cases: cell-based
human S1P1 = molecular target: T1, human S1P1 (Homo sapiens, UniProt P21453); experiment: Calcium mobilization assay, agonist activity at human S1P1; conditions: recombinant CHEM cells expressing human S1P1, FLIPR Calcium 4 dye (FIG. 8, FIG. 11)
T1 construct: host or cells: recombinant CHEM cells
Protocol: (§1) Compounds that were not specific for the S1P, receptor, can have activity for other S1P receptor subtypes, e.g., S1P2, S1P3, S1P4, or S1P5, and can cause undesirable side effects. Accordingly, compounds were tested to identify those that were specific for S1P1 activity and had little or no activity, or are antagonists of, S1P3 activity. Accordingly, the test compounds were tested in a calcium mobilization assay to determine agonist activity at either the human S1P1 or human S1P3 receptor, and antagonist activity only at the human S1P3 receptor. The procedure was essentially as described (with modifications described below) in Davis et al. (2005) Journal of Biological Chemistry, vol. 280, pp. 9833-9841, which is incorporated by reference in its entirety. Calcium mobilization assays were performed in recombinant CHEM cells expressing human S1P1 or S1P3 purchased from Millipore (Billerica, Mass.). To detect free intracellular calcium, S1P1 or S1P3 cells were loaded with FLIPR Calcium 4 dye from Molecular Devices (Sunnyvale, Calif.). Cells were imagined for calcium mobilization using a FLIPR^TETRA equipped with a 96-well dispense head.

human S1P3 receptor [1] = molecular target: T2, human S1P3 receptor (Homo sapiens, UniProt Q99500); experiment: Calcium mobilization assay, agonist activity at human S1P3; conditions: recombinant CHEM cells expressing human S1P3, FLIPR Calcium 4 dye (FIG. 9, FIG. 11)
T2 construct: host or cells: recombinant CHEM cells
Protocol: as §1

human S1P3 receptor [2] = molecular target: T2, human S1P3 receptor; experiment: Calcium mobilization assay, antagonist activity at human S1P3; conditions: recombinant CHEM cells expressing human S1P3, FLIPR Calcium 4 dye (FIG. 10, FIG. 11)
Protocol: as §1

C[C@](N)(COP(=O)(O)O)c1ccc2cc(O[C@H]3CC[C@H](C(F)(F)F)CC3)ccc2c1 [Example 263, Phosphoric acid mono-{(R)-2-amino-2-[6-(trans-4-trifluoromethyl-cyclohexyloxy)-naphthalen-2-yl]-propyl} ester]
S1P1 agonist activity (human S1P1): S1P, agonists | S1P3 agonist activity (human S1P3 receptor [1]): not S1P3 agonists | S1P3 antagonist activity (human S1P3 receptor [2]): S1P3 antagonists
